Laboratory results taken from publication PMC6258673.
These are yes or no findings as the source states them, for the method shown. In cells and extracts the contact can be indirect. Sequences can lack the tags named with a protein.

Biological target: T1, GST-TRIM24 (1–400aa) (UniProt O15164)
T1 sequence: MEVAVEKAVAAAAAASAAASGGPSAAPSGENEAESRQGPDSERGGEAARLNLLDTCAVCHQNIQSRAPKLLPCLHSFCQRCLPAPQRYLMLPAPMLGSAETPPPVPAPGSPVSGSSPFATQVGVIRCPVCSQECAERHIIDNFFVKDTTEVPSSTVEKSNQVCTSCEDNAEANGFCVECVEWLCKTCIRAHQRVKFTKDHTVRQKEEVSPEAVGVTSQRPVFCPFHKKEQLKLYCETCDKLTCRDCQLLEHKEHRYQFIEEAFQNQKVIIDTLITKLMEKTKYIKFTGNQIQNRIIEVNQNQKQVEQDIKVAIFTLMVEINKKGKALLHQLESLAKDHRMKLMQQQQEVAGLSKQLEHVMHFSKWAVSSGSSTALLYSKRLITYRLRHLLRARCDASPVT
Experiment: pull-down; bacterial recombinant GST-TRIM24 (1–400aa) on GSH beads, incubated 2–3 h with LNCaP lysates expressing SFB-tagged TRIM28 full length or deletion mutants; washed with NETN; blot with anti-Flag; only the target purified

Question: How did the binding turn out when TRIM28-ΔN-SFB (domain or fragment) was run?
Answer: Its binding is “no binding”.
